In patent publication US20230227572A1:
No constants are given. Whether binding was seen depends on the method and setting. Binding can be weak; no strength is given.

Key:
[1] = biological target: human PVRIG protein on the cell membrane surface (human); assay: flow cytometry on 293T-human PVRIG cells, AF647 goat anti-mouse IgG, percent positive cells
[2] = biological target: human PVRIG protein on the cell membrane surface (human); assay: flow cytometry on 293T-human PVRIG cells
[3] = biological target: human PVRIG protein on the cell membrane surface (human); assay: flow cytometry on 293T-human PVRIG cells, AF647 mouse anti-human IgG-Fc, percent positive cells
[4] = biological target: Macaca fascicularis PVRIG protein on the cell membrane surface (Macaca fascicularis); assay: flow cytometry on 293T-Macaca fascicularis PVRIG cells

Row | binding [1] | binding [2] | binding [3] | binding [4] | Binder
1 |  | binds | binds | binds | Antibody 4-hu4 (antibody, human IgG4 S228P, kappa, V domains shown) VH: EVQLVQSGAEVKKPGSSVKVSCKASGGTFSSFSIEWVRQAPGQGLEWIGEILPGSNSTNYNEKFKGRVTFTADESTSTAYMELSSLRSEDTAVYYCSSYWFAYWGQGTLVTVSS VL: DIVMTQSPDSLAVSLGERATINCKSSQSLLNSGNQKNYLAWYQQKPGQPPKLLIYGASTRESGVPDRFSGSGSGTDFTLTISSLQAEDVAVYYCQNAHSYPPTFGQGTKLEIKR
2 |  | binds | binds | binds | Antibody 4-hu5 (antibody, human IgG4 S228P, kappa, V domains shown) VH: EVQLVQSGAEVKKPGSSVKVSCKASGGTFSSFSIEWVRQAPGQGLEWIGEILPGSNSTNYNEKFKGRVTFTADTSTNTAYMELSSLRSEDTAVYYCSSYWFAYWGQGTLVTVSS VL: DIVMTQSPDSLAVSLGERATINCKSSQSLLNSGNQKNYLAWYQQKPGQPPKLLIYGASTRESGVPDRFSGSGSGTDFTLTISSLQAEDVAVYYCQNAHSYPPTFGQGTKLEIKR
3 |  | binds | binds | binds | Antibody 4-hu6 (antibody, human IgG4 S228P, kappa, V domains shown) VH: EVQLVQSGAEVKKPGSSVKVSCKASGGTFSSFSIEWVRQAPGQGLEWIGEILPGSNSTNYNEKFKGKATFTADTSTNTAYMELSSLRSEDTAVYYCSSYWFAYWGQGTLVTVSS VL: DIVMTQSPDSLAVSLGERATINCKSSQSLLNSGNQKNYLAWYQQKPGQPPKLLIYGASTRESGVPDRFSGSGSGTDFTLTISSLQAEDVAVYYCQNAHSYPPTFGQGTKLEIKR
4 |  | binds | binds | binds | Antibody 4-hu8 (antibody, human IgG4 S228P, kappa, V domains shown) VH: EVQLVQSGAEVKKPGSSVKVSCKASGYTFSSFSIEWVRQAPGQGLEWMGEILPGSNSTNYNEKFKGRVTFTADESTSTAYMELSSLRSEDTAVYYCSSYWFAYWGQGTLVTVSS VL: DIVMTQSPDSLAVSLGERATINCKSSQSLLNSGNQKNYLAWYQQKPGQPPKLLIYGASTRESGVPDRFSGSGSGTDFTLTISSLQAEDVAVYYCQNAHSYPPTFGQGTKLEIKR
5 |  | binds | binds | binds | Antibody 4-hu11 (antibody, human IgG4 S228P, kappa, V domains shown) VH: EVQLVQSGAEVKKPGSSVKVSCKASGYTFSSFSIEWVRQAPGQGLEWIGEILPGSNSTNYNEKFKGKATFTADTSTNTAYMELSSLRSEDTAVYYCSSYWFAYWGQGTLVTVSS VL: DIVMTQSPDSLAVSLGERATINCKSSQSLLNSGNQKNYLAWYQQKPGQPPKLLIYGASTRESGVPDRFSGSGSGTDFTLTISSLQAEDVAVYYCQNAHSYPPTFGQGTKLEIKR
6 | binds | binds |  |  | Antibody 1 (antibody, V domains shown) VH: QVQLQQSGAELMKPGASVKISCKATGYTFSTFAIDWIKQRPGPGLAWIGEILPGINNTNYNEKFKGKATFTADTSSNTAYMHLSSLTSEDSAVYYCSTYWFAYWGQGTLVTVSA VL: DIVMTQSPSSLSVSAGEKVTMTCKSSQSLLNSGNQKNYLAWYQQKPGQPPKLLMYGASTRESGVPDRFTGSGSGTDFTLTISSVQAEDLAVYYCQNAHSYPPTFGAGTKLELK
7 |  | binds |  | binds | Antibody 4-hu9 (antibody, human IgG4 S228P, kappa, V domains shown) VH: EVQLVQSGAEVKKPGSSVKVSCKASGYTFSSFSIEWVRQAPGQGLEWIGEILPGSNSTNYNEKFKGRVTFTADESTSTAYMELSSLRSEDTAVYYCSSYWFAYWGQGTLVTVSS VL: DIVMTQSPDSLAVSLGERATINCKSSQSLLNSGNQKNYLAWYQQKPGQPPKLLIYGASTRESGVPDRFSGSGSGTDFTLTISSLQAEDVAVYYCQNAHSYPPTFGQGTKLEIKR

The remaining lines, values behind:

Row | Binder | binding [1] | binding [2] | binding [3] | binding [4]
8 | Antibody 2 (antibody, V domains shown) VH: QVQLQQSGAELTKPGASVKISCKATGYTFSTFAIDWIKQRPGHGLAWIGEILPGGNNTNYNEKFKGKATFTADTSSNTAYMHLSSLTSEDSAVYYCSTYWFAYWGQGTLVTVSA VL: DIVMTQSPSSLSVSAGEKVTMSCKSSQSLLNSGNQKNYLAWYQQKPGQPPKLLMYGASTRESGVPDRFTGSGSGTDFTLTISSVQAEDLAVYYCQNAHSYPPAFGAGTKLELK | binds | binds |  | 
9 | Antibody 3 (antibody, V domains shown) VH: EVQLQQSGPELVKPGASMKISCKASGYSFTAYTMNWVKQSHGKNLEWIGLINPYNGGTSYNQKFKGKATLTGDKSSSTAYMELLSVTSEDSAVYFCAREGNYYGSRGDFDYWGQGTTLTVSS VL: DILLTQSPAILSVSPGERVSFSCRASQTIVTNILWYQQRTNGSPRLLIRYASESISGIPSRFSGSGSGTDFTLSINSVESEDIAHYYCQQSHSWPFTFGSGTKLEIK | binds | binds |  | 
10 | Antibody 4-hu1 (antibody, human IgG4 S228P, kappa, V domains shown) VH: EVQLVQSGAEVKKPGSSVKVSCKASGGTFSSFSIEWVRQAPGQGLEWMGEILPGSNSTNYNEKFKGRVTITADESTSTAYMELSSLRSEDTAVYYCARYWFAYWGQGTLVTVSS VL: DIVMTQSPDSLAVSLGERATINCKSSQSLLNSGNQKNYLAWYQQKPGQPPKLLIYGASTRESGVPDRFSGSGSGTDFTLTISSLQAEDVAVYYCQNAHSYPPTFGQGTKLEIKR |  | binds | binds | binds
11 | Antibody 4-hu2 (antibody, human IgG4 S228P, kappa, V domains shown) VH: EVQLVQSGAEVKKPGSSVKVSCKASGGTFSSFSIEWVRQAPGQGLEWMGEILPGSNSTNYNEKFKGRVTITADESTSTAYMELSSLRSEDTAVYYCSSYWFAYWGQGTLVTVSS VL: DIVMTQSPDSLAVSLGERATINCKSSQSLLNSGNQKNYLAWYQQKPGQPPKLLIYGASTRESGVPDRFSGSGSGTDFTLTISSLQAEDVAVYYCQNAHSYPPTFGQGTKLEIKR |  | binds | binds | binds
12 | Antibody 4-hu3 (antibody, human IgG4 S228P, kappa, V domains shown) VH: EVQLVQSGAEVKKPGSSVKVSCKASGGTFSSFSIEWVRQAPGQGLEWMGEILPGSNSTNYNEKFKGRVTFTADESTSTAYMELSSLRSEDTAVYYCSSYWFAYWGQGTLVTVSS VL: DIVMTQSPDSLAVSLGERATINCKSSQSLLNSGNQKNYLAWYQQKPGQPPKLLIYGASTRESGVPDRFSGSGSGTDFTLTISSLQAEDVAVYYCQNAHSYPPTFGQGTKLEIKR |  | binds | binds | binds
13 | Antibody 4-hu7 (antibody, human IgG4 S228P, kappa, V domains shown) VH: EVQLVQSGAEVKKPGSSVKVSCKASGYTFSSFSIEWVRQAPGQGLEWMGEILPGSNSTNYNEKFKGRVTITADESTSTAYMELSSLRSEDTAVYYCSSYWFAYWGQGTLVTVSS VL: DIVMTQSPDSLAVSLGERATINCKSSQSLLNSGNQKNYLAWYQQKPGQPPKLLIYGASTRESGVPDRFSGSGSGTDFTLTISSLQAEDVAVYYCQNAHSYPPTFGQGTKLEIKR |  | binds | binds | binds
14 | Antibody 4-hu10 (antibody, human IgG4 S228P, kappa, V domains shown) VH: EVQLVQSGAEVKKPGSSVKVSCKASGYTFSSFSIEWVRQAPGQGLEWIGEILPGSNSTNYNEKFKGRVTFTADTSTNTAYMELSSLRSEDTAVYYCSSYWFAYWGQGTLVTVSS VL: DIVMTQSPDSLAVSLGERATINCKSSQSLLNSGNQKNYLAWYQQKPGQPPKLLIYGASTRESGVPDRFSGSGSGTDFTLTISSLQAEDVAVYYCQNAHSYPPTFGQGTKLEIKR |  | binds | binds | binds
